Taken from: PubChem BioAssay AID743454 (Peter MacCallum Cancer Centre, 2014)

Aim: 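Knock-downs lowering viability or raising caspase 3/7 activity in vorinostat-treated resistant cells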 (primary screen)
Cell system: human HCT116-VR colon cancer cells, selected for vorinostat resistance
Reagents: siRNA pool against human genes, 40 nM siRNA pool
Timing: vorinostat for 24 h, read-out about 72 h after transfection
Conditions: vorinostat at 2.5 µM final
Measurement: 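Two measures, CellTiter-Fluor viability and luminescent caspase 3/7 activity, each as fold change against same-plate mock wells, mean of duplicates, then screen-wide robust z-score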
Direction: viability robust z-score: higher = more viable cells than screen typical; caspase robust z-score: higher = more caspase 3/7 activity than screen typical
Call rule: 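a knock-down is a hit when classed RV1 or RV2 for lowered viability, or CA1 or CA2 for caspase activation; those lethal without drug were dropped; hits were retested singly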
Here is an unselected part of about 18,000 reagents. 450 of all reagents (2.5%) were called active. 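Single biological run; no consistent viability z cut-off exists, so the class columns, not z-scores, define the calls.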 Unmarked entries are inactive.

The opening 2 records, ahead of the listing:
no.	gene symbol	viability hit class	caspase hit class	viability robust z-score	caspase robust z-score
1	SIT1 (signaling threshold regulating transmembrane adaptor 1)	no change	no change	-2.08	1.25
2	L1TD1 (LINE1 type transposase domain containing 1)	no change	no change	-0.92	-1.01

Results, from the start:
no.	gene symbol	viability hit class	caspase hit class	viability robust z-score	caspase robust z-score
1	SIT1 (signaling threshold regulating transmembrane adaptor 1)	no change	no change	-2.08	1.25
2	L1TD1 (LINE1 type transposase domain containing 1)	no change	no change	-0.92	-1.01
3	SNIP1 (Smad nuclear interacting protein 1)	no change	no change	-0.62	0.53
4	FKBP5 (FKBP prolyl isomerase 5)	no change	no change	0.22	-0.2
5	SF3B6 (splicing factor 3b subunit 6)	no change	no change	-4.82	0.32
6	SDS (serine dehydratase)	no change	no change	-0.17	3.87
7	PRR25 (proline rich 25)	no change	no change	-1.58	1.36
8	JMJD7-PLA2G4B (JMJD7-PLA2G4B readthrough)	no change	no change	-1.66	0.34
9	SHBG (sex hormone binding globulin)	no change	no change	-0.96	0.1
10	PRB4 (proline rich protein BstNI subfamily 4)	no change	no change	-0.7	-0.71
11	RAP2C (RAP2C, member of RAS oncogene family)	no change	no change	-0.58	2.42
12	TBX4 (T-box transcription factor 4)	no change	no change	-0.38	0.18
13	JMJD6	no change	no change	-1.56	5.05
14	MYO16 (myosin XVI)	no change	no change	-0.9	-0.14
15	GLYR1 (glyoxylate reductase 1 homolog)	no change	no change	0.36	-0.04
16	NAA30 (N-alpha-acetyltransferase 30, NatC catalytic subunit)	no change	no change	-0.2	0.26
17	IFNA1 (interferon alpha 1)	no change	no change	0.28	-0.75
18	GSTT2B (glutathione S-transferase theta 2B)	no change	no change	0.64	0.74
19	YAP1 (Yes1 associated transcriptional regulator)	no change	no change	-0.82	1.08
20	ARL8A (ARF like GTPase 8A)	no change	no change	-0.84	-0.94
21	SEC31A (SEC31 homolog A, COPII component)	no change	no change	1.46	-0.42
22	PPP2R5D (protein phosphatase 2 regulatory subunit B'delta)	no change	no change	1.31	0.78
23	AP1S3 (adaptor related protein complex 1 subunit sigma 3)	no change	no change	1.21	-0.66
24	LDLRAD4 (low density lipoprotein receptor class A domain containing 4)	no change	no change	0.74	-1.04
25	SLC29A3	no change	no change	-1	-0.48
26	BRI3BP (BRI3 binding protein)	no change	no change	-0.24	0.34
27	SPMIP8 (sperm microtubule inner protein 8)	no change	no change	0.43	-0.46
28	FLNB (filamin B)	no change	no change	-0.76	1.83
29	CD99 (CD99 molecule (Xg blood group))	no change	no change	-0.49	0.14
30	ZNF528 (zinc finger protein 528)	no change	no change	0.48	-0.3
31	COMMD8 (COMM domain containing 8)	no change	no change	0.02	2.21
32	HAUS2 (HAUS augmin like complex subunit 2)	no change	no change	-0.43	1.79
33	DELE1 (DAP3 binding cell death enhancer 1)	no change	no change	0.47	1.04
34	POU4F2 (POU class 4 homeobox 2)	no change	no change	-0.58	-0.15
35	SAR1A (secretion associated Ras related GTPase 1A)	no change	no change	1.75	-0.22
36	CFAP119 (cilia and flagella associated protein 119)	no change	no change	0.94	0.94
37	MIMS2 (mitochondrial inner membrane structural 2)	no change	no change	1.08	-0.19
38	SLC52A1	no change	no change	1.3	0.31
39	GRIP2 (glutamate receptor interacting protein 2)	no change	no change	-4.63	1.33
40	TRIM64 (tripartite motif containing 64)	no change	no change	-0.26	3.29
41	HERPUD2 (HERPUD family member 2)	no change	no change	1.17	-0.1
42	GPR171 (G protein-coupled receptor 171)	no change	no change	0.48	-0.4
43	PARP16 (poly(ADP-ribose) polymerase family member 16)	no change	no change	0.08	-0.29
44	SLC26A8	no change	no change	-0.29	1.4
45	PKD2L2	no change	no change	-0.37	0.53
46	RBM24 (RNA binding motif protein 24)	no change	no change	-1.23	0.26
47	RTCB (RNA 2',3'-cyclic phosphate and 5'-OH ligase)	no change	no change	1.15	-0.02
48	HPS1 (HPS1 biogenesis of lysosomal organelles complex 3 subunit 1)	no change	no change	1.09	1.71
49	FAM110A (family with sequence similarity 110 member A)	no change	no change	-0.7	-1.14
50	SPRR2G (small proline rich protein 2G)	no change	no change	0.68	-0.62
51	TTC31 (tetratricopeptide repeat domain 31)	no change	no change	-1.91	0.26
52	DAW1 (dynein assembly factor with WD repeats 1)	no change	no change	1.73	-0.72
53	ASPG (asparaginase)	no change	no change	-0.33	-0.21
54	LMAN1L (lectin, mannose binding 1 like)	no change	no change	-0.22	0.55
55	AXL (AXL receptor tyrosine kinase)	no change	no change	0.08	-0.79
56	AFAP1 (actin filament associated protein 1)	no change	no change	-0.06	-0.91
57	MMP24 (matrix metallopeptidase 24)	no change	no change	0.46	-0.24
